Experimental findings from article PMC10631681, “The structural basis of mRNA recognition and binding by yeast pseudouridine synthase PUS1” are described below.

Positions count from the first letter of the chain named. For at least one entry, the source does not settle the construct or the ends of the probe. At least one verdict was read from the data and is not stated in words by the source. Tags and fusion partners may be left off the protein sequences shown.

Data set [1] concerns the target T1, PUS1 R132A (Saccharomyces cerevisiae) (UniProt Q12211).
T1 sequence (looked up): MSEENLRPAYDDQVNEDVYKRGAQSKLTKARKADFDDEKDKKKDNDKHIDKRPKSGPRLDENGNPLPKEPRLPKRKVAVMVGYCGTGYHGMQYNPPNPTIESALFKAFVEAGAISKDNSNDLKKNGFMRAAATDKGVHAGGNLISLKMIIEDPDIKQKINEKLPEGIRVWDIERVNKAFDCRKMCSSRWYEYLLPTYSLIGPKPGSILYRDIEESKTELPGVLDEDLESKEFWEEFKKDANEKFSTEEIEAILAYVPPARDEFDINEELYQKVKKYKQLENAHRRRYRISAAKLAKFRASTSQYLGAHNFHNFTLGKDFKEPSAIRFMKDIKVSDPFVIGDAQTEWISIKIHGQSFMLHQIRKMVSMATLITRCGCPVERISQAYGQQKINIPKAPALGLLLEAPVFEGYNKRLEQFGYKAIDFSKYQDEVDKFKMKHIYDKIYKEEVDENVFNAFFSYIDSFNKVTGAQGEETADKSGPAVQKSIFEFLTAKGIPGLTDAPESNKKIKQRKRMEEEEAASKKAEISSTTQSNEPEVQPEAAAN
The data set can be described thus: EMSA. To be noted: 100 nM RNA, 100 nM-1 uM protein, no reduction of binding vs wild type; 90 min, SYBR Gold stain; recombinant protein; residues 1-544. For orientation: Mobility shift assays separate free from complexed probe on a gel.

Data set [2] deals with T2, PUS1 R362A (Saccharomyces cerevisiae) (UniProt Q12211).
T2 sequence (looked up): T1 sequence (looked up) with A132R, R362A
The data set can be described thus: EMSA. Particulars: 100 nM RNA, 100 nM-1 uM protein, no reduction of binding vs wild type; 90 min, SYBR Gold stain; recombinant protein; residues 1-544.

Turning to AAAUCGGGAUUCCGGAUA [R263 (EMSA)], the binding result in data set [1] and in data set [2] was “binds” in each case.
